{
  "source": "PubChem BioAssay AID504444",
  "about": "(National Center for Advancing Translational Sciences (NCATS), 2011)",
  "note": "Hit rate of the full screen: of about 360,000 compounds, about 7,500 (2.1%) were called active. This list was built around the results that the source calls inconclusive (neither active nor inactive); the mix of calls is not that of the screen. Calls follow the shape of the dose curve; as a rule, active = well fitted inhibition curve with a large enough effect; inconclusive = small, poorly fitted or top-dose-only effect, or effect the other way; inactive = flat fitted curve, though single readings scatter. A potency beside an inconclusive call is a rough fit, not a confirmed value. % is scaled to controls: 0 for no effect and ±100 for the full control effect; potency is read from the fitted curve at half-maximal effect.",
  "data": [
    {"assay": "Nrf2 qHTS screen for inhibitors; also: nearly all actives have a fitted effect of over 60% in size", "conditions": "A549 ARE-Fluc reporter, luciferase luminescence, 18-24 h; activity change, negative = inhibition: at 46 µM (top of the series)", "outline": "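Nrf2 function is reported as luminescence of an ARE-controlled luciferase in A549 cells. Compounds were tested at several concentrations, and a CellTiter-Fluor read on the same wells flagged cytotoxicity.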", "values": [
      {"smiles": "CC1(C)CC(NC(=O)COc2ccccc2Cl)CC(C)(C)N1", "Potency": "inconclusive: 7.31 µM [activator, partial curve]"},
      {"smiles": "O=C(CSc1nc(Cc2ccccc2)nc2ccccc12)c1ccc2c(c1)OCCO2", "Potency": "inconclusive: 29.1 µM [falling, single point]"},
      {"smiles": "Cc1ccccc1NC(=O)C1(NC(=O)c2cccc(N3C(=O)CSC3c3ccccc3)c2)CCCCC1", "note": "(stereo not drawn)", "Potency": "inconclusive: 32.6 µM [falling, single point]"},
      {"smiles": "O=C1CC(c2ccc(OCCCCCOc3ccc(C4CC(=O)NC4=O)cc3)cc2)C(=O)N1", "note": "(stereo not drawn)", "Potency": "inconclusive: 23.1 µM [falling, single point]"},
      {"smiles": "Cc1cccc(N2CCN(C(=O)Cn3c(=O)[nH]c4ccsc4c3=O)CC2C)c1", "note": "(stereo not drawn)", "Potency": "inconclusive: 20.6 µM [falling, single point]"},
      {"smiles": "Fc1ccccc1OCCSc1nnnn1-c1ccccc1", "Potency": "inconclusive: 2.31 µM [activator, full curve]"},
      {"smiles": "CCOC(=O)c1cccc(NC(=O)CCOc2ccccc2)c1", "Potency": "inconclusive: 14.6 µM [falling, partial curve, poor fit]"},
      {"smiles": "Fc1ccc2nc(C3CCCCN3Cc3nc(CC4CC4)no3)[nH]c2c1", "note": "(stereo not drawn)", "Potency": "inconclusive: 29.1 µM [falling, single point]"},
      {"smiles": "Cc1ccc(S(=O)(=O)N2CCC(C)CC2)cc1C(=O)NCCN1CCOCC1", "activity change, negative = inhibition": "inactive: -23.6%"},
      {"smiles": "CC(C)N(Cc1nc(-c2ccccc2)no1)C(=O)CN1C(=O)c2ccccc2C1=O", "activity change, negative = inhibition": "inactive: 1.24%"},
      {"smiles": "Nc1cc(Cl)ccc1Oc1ccc2ccccc2c1", "Potency": "inconclusive: 16.4 µM [activator, single point]"},
      {"smiles": "Cc1cccc(CN2CCN(c3ncccn3)CC2)c1", "Potency": "inconclusive: 20.6 µM [falling, partial curve, poor fit]"},
      {"smiles": "Cc1ccccc1NC(=O)/C=C/c1ccc([N+](=O)[O-])s1", "Potency": "inconclusive: 29.1 µM [falling, single point]"},
      {"smiles": "O=C1c2ccccc2C(=O)C1C(=O)C1CC1", "Potency": "inconclusive: 29.1 µM [falling, single point]"},
      {"smiles": "Cc1csc(SCC(=O)Nc2sccc2C#N)n1", "Potency": "inconclusive: 0.58 µM [activator, partial curve]"},
      {"smiles": "CCCCNC(=S)N(C)/N=C/c1ccc(OCc2ccc(C(=O)OC)cc2)c(OC)c1", "Potency": "inconclusive: 18.4 µM [falling, partial curve, poor fit]"},
      {"smiles": "CC(=O)N1c2ccc(S(=O)(=O)NCCC(=O)Nc3ccc(OC(F)(F)F)cc3)cc2CC1C", "note": "(stereo not drawn)", "Potency": "active: 18.4 µM"},
      {"smiles": "CCC1CCCCN1C(=O)CCc1nnc(C2CCCCC2)o1", "note": "(stereo not drawn)", "Potency": "inconclusive: 29.1 µM [activator, single point]"},
      {"smiles": "COc1cccc(/C=C(/C(=O)OCC(=O)NC2CCCCCCC2)c2ccccc2)c1", "Potency": "inconclusive: 29.1 µM [falling, single point]"},
      {"smiles": "COc1ccc(-c2onc(C)c2C)cc1S(=O)(=O)NCc1cccs1", "activity change, negative = inhibition": "inactive: -14.2%"},
      {"smiles": "CC1CCN(C(=O)CSc2nnc(-c3ccccc3F)o2)CC1", "Potency": "inconclusive: 2.06 µM [activator, partial curve, poor fit]"},
      {"smiles": "Cc1cccc(OCCn2cc(/C=N/NC(=O)c3ccncc3)c3ccccc32)c1", "Potency": "inconclusive: 29.1 µM [falling, single point]"},
      {"smiles": "CCN(CC)S(=O)(=O)c1cccc(C(=O)c2c(C)cc3ccccn23)c1", "Potency": "inconclusive: 20.6 µM [falling, partial curve]"},
      {"smiles": "COc1ccc(Nc2ncnc3c2cnn3Cc2ccccc2)cc1", "Potency": "inconclusive: 29.1 µM [falling, single point]"},
      {"smiles": "COc1ccc(-c2cc(C(=O)NCCc3ccc(S(N)(=O)=O)cc3)c3ccccc3n2)cc1", "Potency": "inconclusive: 6.51 µM [activator, single point]"},
      {"smiles": "Cc1cc(C2=NNC(=Nc3ccc(S(=O)(=O)N4CCOCC4)cc3)SC2)c(C)n1CC1CCCO1", "note": "(stereo not drawn)", "activity change, negative = inhibition": "inactive: 14%"},
      {"smiles": "Cc1ccc(OCCSc2nc3ccccc3n2CC(=O)N2CCOCC2)cc1", "Potency": "active: 18.4 µM"},
      {"smiles": "COC(=O)c1cc(NC(=O)CSC2=NCCS2)cc(C(=O)OC)c1", "activity change, negative = inhibition": "inactive: -19.6%"},
      {"smiles": "O=C(O)CCCNC(=O)c1cncc(O)c1", "activity change, negative = inhibition": "inactive: -1.46%"},
      {"smiles": "Cc1ccc2oc(-c3ccccc3)nc2c1", "Potency": "inconclusive: 5.8 µM [activator, partial curve]"},
      {"smiles": "COc1ccccc1-c1nnc(C2CCN(C(=O)c3ccccc3C)CC2)o1", "Potency": "inconclusive: 14.6 µM [falling, partial curve, poor fit]"},
      {"smiles": "CC(Sc1nc2cc(Cl)ccc2s1)C(=O)Nc1cccc(S(=O)(=O)N2CCOCC2)c1", "note": "(stereo not drawn)", "Potency": "inconclusive: 16.4 µM [falling, single point]"},
      {"smiles": "COC(=O)c1ccc(S(=O)(=O)N2CCN(CCO)CC2)n1C", "activity change, negative = inhibition": "inactive: 0.565%"},
      {"smiles": "O=C(Nc1ccc(Cl)cn1)C1C(c2ccccc2)C1(Cl)Cl", "note": "(stereo not drawn)", "Potency": "inconclusive: 18.4 µM [falling, partial curve]"},
      {"smiles": "COc1ccc(N(CC(=O)Nc2cc(OC)cc(OC)c2)S(=O)(=O)c2c(C)noc2C)cc1", "Potency": "inconclusive: 18.4 µM [falling, single point]"},
      {"smiles": "Brc1ccc(-c2noc(-c3ccccn3)n2)o1", "Potency": "inconclusive: 2.06 µM [activator, full curve]"},
      {"smiles": "O=C(NCc1ccccc1)NC(=O)c1ccccc1F", "Potency": "inconclusive: 3.26 µM [activator, full curve]"},
      {"smiles": "COc1ccc(N2CCN(c3ncnc4scc(-c5ccccc5)c34)CC2)cc1", "Potency": "inconclusive: 16.4 µM [falling, single point]"},
      {"smiles": "Fc1ccc2nc(N3CCCC3)sc2c1", "Potency": "inconclusive: 5.17 µM [activator, partial curve]"},
      {"smiles": "Cc1ccc(S(=O)(=O)N2CCCC2C(=O)N2CCCCCC2)cc1", "note": "(stereo not drawn)", "Potency": "inconclusive: 3.66 µM [activator, full curve]"},
      {"smiles": "Cc1ccc(O)c(NC(=O)CCS(=O)(=O)c2nc(-c3cccs3)cc(C(F)(F)F)n2)c1", "activity change, negative = inhibition": "inactive: -1.13% [at 9.27 µM]"},
      {"smiles": "Cc1ccc(C(C)C)c(OCC(=O)Nc2cc(-c3nc4ccccc4[nH]3)ccc2C)c1", "Potency": "active: 6.51 µM"},
      {"smiles": "O=C(CNC(=O)c1cccs1)Nc1ccc2c(c1)OCCO2", "Potency": "inconclusive: 1.84 µM [activator, full curve]"},
      {"smiles": "COc1ccc(C2c3c(ncn(Cc4ccco4)c3=N)Oc3ccc4ccccc4c32)cc1", "note": "(stereo not drawn)", "activity change, negative = inhibition": "inactive: -16.3%"},
      {"smiles": "CN(C)c1ccc(C(O)c2cc3ccccc3s2)cc1", "note": "(stereo not drawn)", "Potency": "inconclusive: 7.31 µM [activator, partial curve]"},
      {"smiles": "CCn1nc(C(=O)OCC(=O)NCCN2C(=O)CSC2=O)c2ccccc2c1=O", "activity change, negative = inhibition": "inactive: 19.2%"},
      {"smiles": "CN(CCOc1ccccc1)C(=O)c1cc(S(=O)(=O)N2CCCCC2)ccc1Cl", "Potency": "inconclusive: 20.6 µM [falling, partial curve]"},
      {"smiles": "Cc1cccc(OCCC(=O)Nc2ccc(C)c(S(=O)(=O)N3CCCCC3)c2)c1", "Potency": "inconclusive: 29.1 µM [falling, single point]"},
      {"smiles": "COc1cccc(C(C(=O)NCC2CCCO2)N(C(=O)Cn2nnc3ccccc32)c2ccc(NC(C)=O)cc2)c1", "note": "(stereo not drawn)", "activity change, negative = inhibition": "inactive: -25.6%"},
      {"smiles": "Cc1ccc(NC(=O)c2ccn(C(=O)Nc3ccccc3)n2)c(C)c1", "Potency": "inconclusive: 23.1 µM [activator, partial curve, poor fit]"},
      {"smiles": "Cc1nnc(NC(=O)c2ccc(N3CCCC3=O)cc2)s1", "Potency": "inconclusive: 3.66 µM [activator, partial curve, poor fit]"},
      {"smiles": "NS(=O)(=O)c1cccnc1Nc1cccc(C(F)(F)F)c1", "Potency": "inconclusive: 32.6 µM [activator, single point]"},
      {"smiles": "CCOc1ccccc1NC(=O)Cn1c(=O)n(Cc2ccc(OC)cc2)c(=O)c2oc3ccccc3c21", "activity change, negative = inhibition": "inactive: -1.05%"},
      {"smiles": "CCOc1c(C(N)=O)cc([N+](=O)[O-])cc1[N+](=O)[O-]", "Potency": "inconclusive: 4.11 µM [falling, partial curve]"},
      {"smiles": "COc1ccccc1OCCn1c(CCNC(=O)C2CCCCC2)nc2ccccc21", "activity change, negative = inhibition": "inactive: -13.2%"},
      {"smiles": "N#CC1=C2SC=C(c3ccc(Br)cc3)N2CCCC1=O", "Potency": "inconclusive: 14.6 µM [activator, partial curve]"},
      {"smiles": "Cc1ccc(Nc2ncnc3ccccc23)cc1", "Potency": "inconclusive: 5.8 µM [activator, partial curve]"},
      {"smiles": "CC1=C([N+](=O)[O-])C(c2ccc3c(c2)OCO3)N(C)C(=O)N1C", "note": "(stereo not drawn)", "Potency": "inconclusive: 3.26 µM [falling, partial curve]"},
      {"smiles": "COc1cc(C2NC(=O)NC(c3ccccc3)=C2C(C)=O)c(Br)c(Br)c1O", "note": "(stereo not drawn)", "activity change, negative = inhibition": "inactive: -8.76%"},
      {"smiles": "Cc1c(CC(=O)NCCCC(=O)O)c(=O)oc2cc3c(cc12)CCC(C)(C)O3", "Potency": "active: 18.4 µM"},
      {"smiles": "CCOC(=O)c1cc(C)n(CC2CCC(C(=O)Nc3ccc(OC)cc3)CC2)c1C", "note": "(stereo not drawn)", "Potency": "inconclusive: 20.6 µM [falling, partial curve, poor fit]"},
      {"smiles": "COc1ccc(C(=O)NC2CCCc3c2cnn3-c2cc(F)cc(F)c2)c(OC)c1OC", "note": "(stereo not drawn)", "activity change, negative = inhibition": "inactive: -8.4%"},
      {"smiles": "Fc1ccc(-c2cc3ncc4c(n3n2)-c2cc(Cl)ccc2OC4)cc1", "Potency": "inconclusive: 4.11 µM [activator, full curve, poor fit]"},
      {"smiles": "c1ccc(C(c2ccccc2)N2CCN(c3nc4ccccc4n4cnnc34)CC2)cc1", "Potency": "active: 18.4 µM"},
      {"smiles": "COc1ccc(/C=N/NC(=O)c2csc(-n3nc(C)cc3C(F)(F)F)n2)cc1", "Potency": "inconclusive: 18.4 µM [falling, partial curve, poor fit]"},
      {"smiles": "O=C(CN1CCN(c2ccc(F)cc2)CC1)Nc1ccccc1[N+](=O)[O-]", "Potency": "inconclusive: 11.6 µM [falling, partial curve, poor fit]"},
      {"smiles": "Cc1ccc(C(=O)Nc2ccccn2)cc1S(=O)(=O)N1CCOCC1", "activity change, negative = inhibition": "inactive: 11.3%"},
      {"smiles": "CCN1CCN(C(=O)CS(=O)(=O)Cc2nc(-c3ccc(C)cc3)oc2C)CC1", "Potency": "inconclusive: 32.6 µM [falling, single point]"}
    ]}
  ]
}
